For at least one compound, name, drawing or mass did not settle the structure. Bridge positions count the residues as written; N and C are the ends. Square brackets hold non-standard residues; d marks the D form. Triazole bridges read from a SMILES are 1,4-linked. Peptide text beside a SMILES is read from it. Lys(N3) = [N-]=[N+]=NCCCC[C@H](N)C(=O)O; Pra = C#CC[C@H](N)C(=O)O
Key:
[1] = target: T1, His-PSMA (Sino Biological) (Homo sapiens, UniProt Q04609); assay: ELISA, PSMA immobilized via His-tag, PCC titrated in solution; settings: read-out: EC50 of binding to PSMA by ELISA
T1 construct: purchased Sino Biological
Description: (§1) Epitope 5 hits were tested for binding to PSMA by ELISA (PSMA immobilized; PCC titrated in solution). Two immobilization strategies were employed: a His-tag and Myc-Flag tag (His-PSMA (Sino Biological) and PSMA-Myc-Flag (Origene)).

Chains of the proteins cited; added tags and fusions are not shown.
UniProt Q04609, whole entry: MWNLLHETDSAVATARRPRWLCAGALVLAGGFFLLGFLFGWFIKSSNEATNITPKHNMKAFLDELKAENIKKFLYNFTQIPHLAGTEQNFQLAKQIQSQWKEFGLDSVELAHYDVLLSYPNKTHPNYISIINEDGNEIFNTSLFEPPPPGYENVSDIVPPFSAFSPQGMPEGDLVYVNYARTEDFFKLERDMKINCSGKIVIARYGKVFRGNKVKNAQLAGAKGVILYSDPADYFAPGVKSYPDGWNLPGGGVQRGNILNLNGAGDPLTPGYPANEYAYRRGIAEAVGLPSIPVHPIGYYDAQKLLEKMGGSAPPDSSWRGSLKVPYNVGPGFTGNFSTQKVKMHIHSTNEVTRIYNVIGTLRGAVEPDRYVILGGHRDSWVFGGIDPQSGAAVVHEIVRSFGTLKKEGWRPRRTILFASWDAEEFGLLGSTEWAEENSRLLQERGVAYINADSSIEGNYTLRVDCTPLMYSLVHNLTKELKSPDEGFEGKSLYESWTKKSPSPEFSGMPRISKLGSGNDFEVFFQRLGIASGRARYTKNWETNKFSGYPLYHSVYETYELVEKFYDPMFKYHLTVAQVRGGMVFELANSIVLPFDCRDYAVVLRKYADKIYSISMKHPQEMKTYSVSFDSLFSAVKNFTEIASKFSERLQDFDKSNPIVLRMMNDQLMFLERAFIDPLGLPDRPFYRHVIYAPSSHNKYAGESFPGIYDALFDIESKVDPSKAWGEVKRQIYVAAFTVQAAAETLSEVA

[2] = target: T2, PSMA-Myc-Flag (Origene) (Homo sapiens, UniProt Q04609); assay: ELISA, PSMA immobilized via Myc-Flag tag, PCC titrated in solution; settings: read-out: EC50 of binding to PSMA by ELISA
T2 construct: purchased Origene
Description: as §1

## CC(=O)N[C@H]1Cc2cn(nn2)CCCC[C@@H](C(N)=O)NC(=O)[C@@H](Cc2c[nH]c3ccccc23)NC(=O)[C@@H](Cc2c[nH]c3ccccc23)NC(=O)[C@@H](CCC(=O)O)NC(=O)[C@@H](CCCNC(=N)N)NC(=O)[C@@H](Cc2c[nH]cn2)NC1=O [hreww] (Ac-[Pra][dH][dR][dE][dW][dW][Lys(N3)]-NH2; triazole 1-7; N-terminus and C-terminus assumed)
[1]
  EC50: 872 nM
[2]
  EC50: 662 nM

— patent publication US11638764B2, “Theranostic capture agents, compositions, and methods of using and making” (Indi Molecular, Inc., priority 2018, dated 2023)
